# Measured values: paper PMC8835842, “YdfD, a Lysis Protein of the Qin Prophage, Is a Specific Inhibitor of the IspG-Catalyzed Step in the MEP Pathway of Escherichia coli” (International Journal of Molecular Sciences, 2022)
# Results are given in words; binding and its absence hold for the method and conditions named. In cells and extracts the contact can be indirect. Some results given as binding are weak or reduced against the parent protein; the word gives no strength. Tags and fused reporters may be left off the sequences shown.
# T1: GST-YdfD∆C35 (E. coli BL21(DE3)) (UniProt P29010)
# T1 sequence: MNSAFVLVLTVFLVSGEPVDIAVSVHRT
# T2: IspG-His (E. coli BL21(DE3)) (UniProt P62620)
# T2 sequence: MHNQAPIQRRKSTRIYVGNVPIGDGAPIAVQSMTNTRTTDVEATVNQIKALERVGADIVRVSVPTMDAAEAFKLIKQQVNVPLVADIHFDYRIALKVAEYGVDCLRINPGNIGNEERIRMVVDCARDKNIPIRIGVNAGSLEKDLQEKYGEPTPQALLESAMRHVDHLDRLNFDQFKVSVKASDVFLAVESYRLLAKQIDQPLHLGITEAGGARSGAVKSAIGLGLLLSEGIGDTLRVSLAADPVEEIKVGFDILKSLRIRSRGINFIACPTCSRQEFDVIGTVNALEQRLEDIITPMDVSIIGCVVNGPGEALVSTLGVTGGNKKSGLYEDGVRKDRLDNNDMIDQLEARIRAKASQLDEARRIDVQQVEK
# T3: GST-YdfD (E. coli BL21(DE3)) (UniProt P29010)
# T3 sequence: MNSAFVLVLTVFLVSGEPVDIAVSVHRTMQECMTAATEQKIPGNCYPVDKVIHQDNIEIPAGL
# T4: GST-YdfD∆N28 (E. coli BL21(DE3)) (UniProt P29010)
# T4 sequence: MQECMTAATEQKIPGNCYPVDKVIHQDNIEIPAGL
# T5: YdfD-CFP (E. coli BL21(DE3)) (UniProt P29010)
# T5 sequence: T3 sequence
# B1: IspG 1-279 (domain or fragment, UniProt P62620 1-279)
# chain: MHNQAPIQRRKSTRIYVGNVPIGDGAPIAVQSMTNTRTTDVEATVNQIKALERVGADIVRVSVPTMDAAEAFKLIKQQVNVPLVADIHFDYRIALKVAEYGVDCLRINPGNIGNEERIRMVVDCARDKNIPIRIGVNAGSLEKDLQEKYGEPTPQALLESAMRHVDHLDRLNFDQFKVSVKASDVFLAVESYRLLAKQIDQPLHLGITEAGGARSGAVKSAIGLGLLLSEGIGDTLRVSLAADPVEEIKVGFDILKSLRIRSRGINFIACPTCSRQEFD
# B2: YdfD (MBP tag cleaved) (natural protein, E. coli BL21(DE3), UniProt P29010 1-63, looked up)
# chain: T3 sequence
# notes: YdfD, lysis protein of the Qin cryptic prophage, 63 amino acids; ydfD amplified from the E. coli BL21(DE3) genome; No truncation is told for this construct; source: E. coli BL21(DE3), purified as MBP-YdfD (amylose resin), MBP cleaved by PreScission protease; not shown: MBP, N-terminal, cleaved
# B3: IspG-His (enzyme, E. coli BL21(DE3), UniProt P62620 1-372, looked up)
# chain: T2 sequence
# notes: ispG amplified from the E. coli BL21(DE3) genome; also called His-tagged ispG; GcpE; source: E. coli BL21(DE3); coexpressed with YdfD constructs, in lysate; and purified (Ni-NTA, Superdex 200)
# B4: IspG-YFP (enzyme, UniProt P62620 1-372)
# chain: T2 sequence
# Columns and labels:
# [1] = biological target: T1, GST-YdfD∆C35 (E. coli BL21(DE3)); experiment: pull-down; GST-YdfD or its deletion mutants coexpressed with IspG constructs in E. coli BL21(DE3); lysate supernatant on GST beads; 3 washes; SDS-PAGE and Western blotting
# [2] = biological target: T2, IspG-His (E. coli BL21(DE3)); experiment: pull-down; IspG-His as bait on Ni beads, YdfD-HA as prey; SDS-PAGE and Western blotting
# [3] = biological target: T3, GST-YdfD (E. coli BL21(DE3)); experiment: pull-down; GST-YdfD or its deletion mutants coexpressed with IspG constructs in E. coli BL21(DE3); lysate supernatant on GST beads; 3 washes; SDS-PAGE and Western blotting
# [4] = biological target: T4, GST-YdfD∆N28 (E. coli BL21(DE3)); experiment: as above
# [5] = biological target: T3, GST-YdfD (E. coli BL21(DE3)); experiment: pull-down; candidate proteins from the MS screen recombinantly expressed and purified, tested with YdfD in another pull-down (Table 1, Figure S1)
# [6] = biological target: T5, YdfD-CFP (E. coli BL21(DE3)); experiment: FRET or BRET; YdfD-CFP (donor) and IspG-YFP (acceptor) coexpressed in E. coli BL21(DE3), IPTG 8 h at 37 °C, confocal imaging of living cells; also under pH, osmotic and oxidative stress
binder,measurement,setting,value
B1,binding,[1],binds
B2,binding,[2],binds
B3,binding,[3],binds
same,binding,[1],binds
same,binding,[4],no binding
same,binding,[5],binds
B4,binding,[6],binds
